Consider 62 compounds from PubChem BioAssay AID445 (National Center for Advancing Translational Sciences (NCATS), 2006).

A short description of the assay: IkB Signaling. To be noted: ABC-DLBCL IkBa-CBG/CBR dual luciferase ratio (green luciferase fused to IkBa over red control in OCI-Ly3 lymphoma cells), 4 h. In outline: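 In this assay, an IκBα–CBG68 fusion accumulates when IKK-driven degradation is blocked; native CBR normalizes for cell number. OCI-Ly3 cells were treated 4 h with compound and doxycycline, then green and red light read after Chroma-Glo addition.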
[1] abbreviates: measured here: control luc red channel unless noted.
The mark [2] stands for this setting: measured here: IkB-luc green channel.
Where [3] appears, read: measured here: control luc red channel.

Some of the results follow. The main result of the screen is listed elsewhere. These columns were measured beside it and carry no call. The list favours compounds with an active or inconclusive main result. Words in brackets tell the shape of the fitted curve; partial curves, single points and poor fits give uncertain potencies.

A word on the AC50: it is the concentration giving half of the maximal activity seen. With `CCCC1=Nc2cc(C(=O)N3CCC(C)CC3)ccc2Sc2ccc(C)cc21`, the concentration at half-maximal activity (AC50) under setting [1] was 31.6 µM [falling, single point].
Regarding `CC1=C(C(=O)OC2CCCCCC2)C(c2cccc(Cl)c2)CC(=O)N1` (centres undefined), under setting [1], the concentration at half-maximal activity (AC50) was 31.6 µM [falling, single point].
On to `O=C(CSc1ccccc1C(=O)O)Nc1cccc(C(=O)O)c1`, for which, under setting [1], the AC50 was 10 µM [falling, partial curve].
Same read-out and setting: with `CCOc1ccc(NC(=O)c2ccc(F)c(S(=O)(=O)N3CCN(c4ccccn4)CC3)c2)cc1` the figure was 3.98 µM [falling, full curve, poor fit].
Same read-out and setting: with `Cc1ccc(CNC(=O)Cn2c(=O)n(Cc3ccc(F)cc3)c(=O)c3sc4ccccc4c32)cc1` the figure was 3.16 µM [rising, full curve, poor fit].
For `CCOc1ccc2[nH]c(=O)c(CN(Cc3cccs3)C(CC)c3nnnn3C(C)(C)CC)cc2c1` (centres undefined), the AC50 under setting [1] was 20 µM [falling, single point].
Turning to `O=C(Nc1ccc(Cl)cc1)N1CCC(c2ccccc2)C1` (centres undefined), under setting [1], the AC50 was 12.6 µM [falling, partial curve].
As to `CCCN(C(=O)Cn1ncc2c([nH]c3ccc(C)cc32)c1=O)c1ccccc1C`, the half-maximal activity concentration (AC50) under setting [1] is 12.6 µM [falling, partial curve].
On the same count and under the same terms, with `CCc1nc2ccccc2c(C(=O)OCC(=O)NCCCN2CCCC2=O)c1C` the figure was 31.6 µM [falling, single point]; with `Cc1ccc(C)c(CNC(=O)c2cc3ccccn3n2)c1`, 10 µM [falling, partial curve]; with `CCOC(=O)C1CCC(CN(Cc2cccc(Br)c2)S(=O)(=O)c2ccc(Cl)cc2)CC1` (centres undefined), 7.94 µM [falling, full curve].
With `Cc1cc(C(=O)N2CCN(c3cccc(Cl)c3)CC2)c(C)o1`, the half-maximal activity concentration (AC50) under setting [1] was 3.98 µM [falling, partial curve].
On to `CCN1C(=O)C(Cc2nc3ccccc3c(=O)n2-c2ccc(OC)cc2)c2ccccc21` (centres undefined), for which the AC50 under setting [1] was 20 µM [falling, single point].
The same measure, in the same setting: in the case of `COc1ccc(N2CC(NC(=O)COc3ccc4ccccc4c3)CC2=O)cc1OC` (centres undefined) it was 0.0398 µM [rising, full curve, poor fit].
The same measure, in the same setting: in the case of `CCCCC1CCC(C(=O)N2CC(=O)Nc3ccc(Cl)cc3C2c2ccc(F)cc2)CC1` (centres undefined) it was 10 µM [falling, partial curve].
For the compound `O=C1C(=C(O)c2ccccc2)C(=O)c2ccccc21`, the AC50 under setting [1] was 12.6 µM [falling, partial curve].
`O=C1C2=C(Nc3ccccc3SC2c2ccco2)c2ccccc21` (centres undefined): the AC50 is 39.8 µM [falling, single point] under setting [2] and 12.6 µM [falling, partial curve] under setting [3].
In the case of `COc1ccccc1CNc1nccn(-c2ccccc2)c1=O`, the AC50 under setting [1] is 20 µM [falling, single point].
For `COc1ccc(NC(=O)c2cnc(N3CCCCC3)c3ccccc23)cc1Cl`, the half-maximal activity concentration (AC50) under setting [1] is 6.31 µM [falling, full curve, poor fit].
Take `CCN(CC)c1ccc(-c2nc(-c3ccco3)no2)cc1[N+](=O)[O-]`: under setting [1], the AC50 was 25.1 µM [falling, single point].
For `CCC(C)NC(=O)c1sc2nc(C)c(C(=O)Nc3ccc(C)cc3C)c(-c3ccccc3Cl)c2c1N` (centres undefined), under setting [1], the concentration at half-maximal activity (AC50) is 0.316 µM [falling, partial curve].
In the case of `Cc1ccc(Nc2ccc(N3CCN(C(=O)c4ccc([N+](=O)[O-])cc4)CC3)nn2)cc1`, the AC50 under setting [1] was 15.8 µM [falling, single point].
Turning to `Cc1ccc(S(=O)(=O)NCCc2csc(-c3cccc(F)c3)n2)cc1`, under setting [1], the AC50 is 20 µM [falling, partial curve].
In the case of `CCOC(=O)c1cccc(NS(=O)(=O)c2cc3c(cc2C)NC(=O)CO3)c1`, the concentration at half-maximal activity (AC50) under setting [1] is 25.1 µM [falling, single point].
Regarding `O=C(c1ccc(Nc2nc3ccccc3n3nnnc23)cc1)N1CCN(c2cccc(C(F)(F)F)c2)CC1`, under setting [1], the AC50 is 5.01 µM [falling, full curve].
In the case of `Cc1ccc(NC(=O)C2CCN(c3nnc(C)c4c(C)n(-c5ccccc5)nc34)CC2)cc1Cl`, under setting [1], the AC50 was 0.00631 µM [falling, full curve].
For `CCCCSc1nnc2c(n1)OC(C)N(C(C)=O)c1ccccc1-2` (centres undefined), the AC50 under setting [1] was 0.01 µM [falling, full curve, poor fit].
Still for that read-out and setting: in the case of `COc1ccc(CCNC(=O)C2COc3ccccc3C2)cc1OC` (centres undefined) it was 10 µM [falling, partial curve, poor fit]; in that of `Cn1c(Oc2ccc(Cl)cc2)nc2c1c(=O)n(Cc1ccc(F)cc1)c(=O)n2C`, 3.98 µM [falling, full curve]; in that of `O=C(NCCc1ccccc1)c1ccc2c(c1)N(Cc1ccc(F)cc1)C(=O)c1ccccc1S2`, 31.6 µM [falling, single point].
For the compound `COc1ccc(C(=O)NC(c2ccc(Cl)cc2)c2cc(Cl)c3cccnc3c2O)cc1` (centres undefined), under setting [1], the half-maximal activity concentration (AC50) is 10 µM [falling, partial curve, poor fit].
For `Cc1cc(C)cc(NC(=O)CCC(=O)N2CCSc3ccccc32)c1`, the AC50 under setting [1] was 25.1 µM [falling, single point].
As for `O=C(CN1CCN(Cc2ccccc2Cl)C1=O)NC1CCCCCC1`, the AC50 under setting [1] is 25.1 µM [falling, single point].
For `Cc1nn(-c2ccccc2)c(C)c1C(=O)OCC(=O)NC(=O)NC1CCCCC1`, the AC50 under setting [1] is 25.1 µM [falling, partial curve].
On the same count and under the same terms, in the case of `COc1ccc(CC(=O)N2CCc3cc(OC)c(OC)cc3C2COc2ccc(F)cc2)cc1OC` (centres undefined) it was 7.94 µM [falling, single point]; in that of `O=C(NCc1ccccc1)c1ccc2oc(=O)n(Cc3ccccc3)c2c1`, 15.8 µM [falling, single point]; in that of `CN(C)c1ccc(NC(=O)CSC2=Nc3ccccc3C3=NC(CCC(=O)NCc4cccs4)C(=O)N23)cc1` (centres undefined), 15.8 µM [falling, partial curve].
As for `COc1cccc(C(=O)Nc2cccc(C(=O)OCc3cc(=O)n4c(C)csc4n3)c2)c1`, under setting [1], the AC50 is 0.398 µM [falling, full curve].
Regarding `Cc1c(C(=O)NC(C)c2ccccc2)sc2nc3n(c(=O)c12)CCCC3` (centres undefined), the AC50 under setting [1] is 20 µM [falling, partial curve].
With `COCCNC(=O)c1ccc2c(c1)N=C(C)c1cc(C)ccc1S2`, the AC50 under setting [2] is 0.794 µM [rising, full curve] and the AC50 under setting [3] was 3.98 µM [rising, single point].
Take `Cc1nn2cc(-c3ccccc3)nc2s1`: the AC50 under setting [1] is 12.6 µM [falling, partial curve].
Consider `CCN(CC)CCCNC(=O)c1ccc2c(Cl)c3c(nc2c1)CCCC3`, for which the concentration at half-maximal activity (AC50) under setting [1] was 39.8 µM [falling, single point].
Take `COCCCNC(=O)C1CCN(c2cc(C)nc3c(-c4ccc(Cl)cc4)c(C)nn23)CC1`: the half-maximal activity concentration (AC50) under setting [1] is 0.794 µM [falling, full curve].
On to `CCCc1ccc(Oc2cn[nH]c2-c2ccc(O)cc2O)cc1`, for which, under setting [1], the AC50 was 10 µM [falling, partial curve].
As to `CCOC(=O)c1c(Oc2ccc(C(C)=O)cc2)nnc(-c2ccccc2)c1-c1ccccc1`, under setting [1], the AC50 is 15.8 µM [falling, partial curve].
For the compound `CCc1nn2c(=O)cc(COC(=O)C(CC)c3ccccc3)nc2s1` (centres undefined), the concentration at half-maximal activity (AC50) under setting [1] was 10 µM [falling, partial curve].
On the same count and under the same terms, with `COc1cccc(-c2cc(C(F)(F)F)nc(NCc3ccco3)n2)c1` the figure was 25.1 µM [falling, partial curve]; with `CCCNC(=O)CSc1nc(-c2ccc(OC)cc2)cc(C(F)(F)F)n1`, 10 µM [rising, partial curve]; with `CCOC(=O)c1c(-c2ccccc2)oc2ccc(N(C(C)=O)S(=O)(=O)c3ccc(C)cc3)cc12`, 12.6 µM [falling, partial curve].
For the compound `O=S(=O)(Nc1nc2ccccc2nc1N1CCN(c2ccccn2)CC1)c1ccc(Cl)cc1`, under setting [1], the AC50 is 0.0794 µM [falling, full curve].
For `CCC(=O)N1CCc2cc(Br)cc(S(=O)(=O)CCC(=O)NCCc3ccccc3)c21`, the half-maximal activity concentration (AC50) under setting [1] was 0.00631 µM [falling, full curve, poor fit].
Take `O=c1cc(-c2ccccc2)c2ccc3c(c2o1)CN(Cc1ccccc1)CO3`: under setting [1], the concentration at half-maximal activity (AC50) was 3.16 µM [falling, partial curve].
As to `COc1ccc(NC(=O)N2CCCC(c3nc(-c4ccc(C(C)C)cc4)no3)C2)cc1` (centres undefined), the AC50 under setting [1] is 20 µM [falling, partial curve].
As for `COc1ccc(-n2nc(C(=O)NCC(=O)NCc3ccco3)c3ccccc3c2=O)cc1Cl`, under setting [1], the half-maximal activity concentration (AC50) was 5.01 µM [falling, partial curve].
As to `Cc1nn(-c2ccc(N3CCCCC3)nn2)c(C)c1CCC(=O)NCc1ccc(Cl)cc1`, the AC50 under setting [1] was 12.6 µM [falling, partial curve].
Regarding `Cn1c(=O)oc2cc(S(=O)(=O)N3CCC(C(=O)N4CCN(c5ccc(Cl)cc5)CC4)CC3)ccc21`, the half-maximal activity concentration (AC50) under setting [1] is 12.6 µM [falling, partial curve].
The same measure, in the same setting: with `O=C(Nc1ccc(F)cc1)N1CCN(C/C=C/c2ccccc2)CC1` the figure was 20 µM [falling, partial curve]; with `CCOC(=O)c1cc(C)n(CC2CCC(C(=O)Nc3ccc(C(=O)OC)cc3)CC2)c1C` (centres undefined), 2.51 µM [falling, full curve]; with `CCOc1ccc(-c2oc3cc(Cl)ccc3c(=O)c2O)cc1OC`, 0.794 µM [rising, full curve].
The same measure, in the same setting: in the case of `COc1ccc(-c2ccc(CCC(=O)O)n2-c2ccc(Cl)cc2C)cc1` it was 20 µM [falling, partial curve]; in that of `CCN(C(=O)CSc1nc2ccccc2n1CC(=O)Nc1ccc(F)cc1F)c1ccccc1`, 39.8 µM [falling, single point].
As to `CCN(C(=O)CSc1nc2n[nH]c(C)c2c(=N)n1-c1cccc(OC)c1)c1cccc(C)c1`, the AC50 under setting [1] is 12.6 µM [falling, partial curve].
